The record followed here is patent US20220213213A1.

Amino acid sequences for entries named in this document (tags omitted). A change or cut given only in a name is not applied to a line headed by its entry.
UniProt A9YYE7: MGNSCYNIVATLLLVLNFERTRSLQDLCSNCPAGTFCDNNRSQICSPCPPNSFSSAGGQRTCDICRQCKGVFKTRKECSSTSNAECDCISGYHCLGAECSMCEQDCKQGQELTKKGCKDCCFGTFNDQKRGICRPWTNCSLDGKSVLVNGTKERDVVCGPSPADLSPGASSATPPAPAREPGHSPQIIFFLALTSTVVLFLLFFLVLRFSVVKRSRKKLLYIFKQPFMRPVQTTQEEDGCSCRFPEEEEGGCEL
UniProt P25942: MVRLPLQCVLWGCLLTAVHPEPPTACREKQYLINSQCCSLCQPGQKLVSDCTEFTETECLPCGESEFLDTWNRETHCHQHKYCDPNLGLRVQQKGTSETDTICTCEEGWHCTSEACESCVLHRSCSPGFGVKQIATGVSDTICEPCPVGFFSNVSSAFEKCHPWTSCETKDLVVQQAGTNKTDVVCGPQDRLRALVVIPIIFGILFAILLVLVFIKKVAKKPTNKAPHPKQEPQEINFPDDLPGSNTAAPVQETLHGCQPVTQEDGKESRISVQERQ

The target of this test is cynomolgus CD137 on CHO cells (extracellular part of cynomolgus CD137 fused to transmembrane and intracellular part of human CD40) (cynomolgus; human) (UniProt A9YYE7+P25942). As to the kind of experiment: flow cytometry, CHO-cyCD137.

These are yes or no findings as the source states them, for the method shown. Some entries that bind do so weakly or less than the wild type.

B1: 1618/1619 (antibody, V domains shown)
VH: EVQLLESGGGLVQPGGSLRLSCAASGFTFSYGSMYWVRQAPGKGLEWVSSISSGSGSTYYADSVKGRFTISRDNSKNTLYLQMNSLRAEDTAVYYCARSSYYGSYYSIDYWGQGTLVTVSS
VL: DIQMTQSPSSLSASVGDRVTITCRASQSISSYLNWYQQKPGKAPKLLIYAASSLQSGVPSRFSGSGSGTDFTLTISSLQPEDFATYYCQQYYDNLPTFGQGTKLEIK
For the molecule B1, the binding result is listed as “binds”.

B2: 1202/1203 (antibody, V domains shown)
VH: EVQLLESGGGLVQPGGSLRLSCAASGFTFYGSSMSWVRQAPGKGLEWVSSIYYGSSGTYYADSVKGRFTISRDNSKNTLYLQMNSLRAEDTAVYYCARSYYGYFDYWGQGTLVTVSS
VL: DIQMTQSPSSLSASVGDRVTITCRASQSISSYLNWYQQKPGKAPKLLIYAASSLQSGVPSRFSGSGSGTDFTLTISSLQPEDFATYYCQQYYTVVPFTFGQGTKLEIK
Consider B2, for which the binding result is on record as “binds”.
